Values from PubChem BioAssay AID1159578 (Peter MacCallum Cancer Centre, 2015)
Assay: 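Knock-downs that alter how fast lymphatic endothelial cells migrate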 (primary screen). Cells: human lymphatic endothelial cells. Reagent: siRNA pool against human genes, 40 nM. Timing: 48 h after transfection. Measured: 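High-content imaging of dye-stained cells in a scratch assay measures filled wound area and nuclei per well; duplicate means given as ratio to mock and robust z-score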. Scale: migration robust z-score: higher = faster migration into the scratch; nuclei per well: higher = more cells in the well. Call rule: 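Migration changed when robust z exceeds 2 or falls below -2 and mean nuclei number is at least 3300; otherwise not called changed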. Calls: active = migration changed; inactive = no migration change, or too few cells.
Here is one part, drawn at random, of about 18,000 reagents. About 1,030 of all reagents (5.7%) count as active. 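Inactive calls also include pools with fewer than 3300 nuclei, whose migration was not assessed.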 Raw values vary from plate to plate and are shown uncorrected. Entries without a mark were called inactive. Not all columns of the deposit are shown.

gene knocked down	migration robust z-score	migration class with cell-count check	nuclei per well, duplicate mean
ACAD11	-0.18	migration z between -2 and 2; enough cells	5978
DNAJC1	-0.42	migration z between -2 and 2; enough cells	4720
PDF	0.08	migration z between -2 and 2; enough cells	5428
SOWAHC	0.1	migration z between -2 and 2; enough cells	6056
SRR	-2.31 (active)	migration z below -2; enough cells	5122
DCAF8L1	-0.86	migration z between -2 and 2; enough cells	3388
HCN4	-0.05	migration z between -2 and 2; enough cells	5448
MAPK8	-0.44	migration z between -2 and 2; enough cells	4986
NIP7	-0.1	migration z between -2 and 2; enough cells	6158
RO60	-0.31	migration z between -2 and 2; enough cells	5422
NSD3	-0.02	migration z between -2 and 2; enough cells	5444
EAF1	-0.36	migration z between -2 and 2; enough cells	3717
TBC1D23	-0.52	migration z between -2 and 2; enough cells	7054
RPS13	-1.82	migration z between -2 and 2; enough cells	4002
CPLANE1	-0.64	migration z between -2 and 2; enough cells	6738
OR8J3	0.62	migration z between -2 and 2; enough cells	6516
RAB30	0.78	migration z between -2 and 2; enough cells	6206
SYNE2	-0.12	migration z between -2 and 2; enough cells	6244
TRPC3	-1.89	migration z between -2 and 2; enough cells	4420
CHMP1B	0.94	migration z between -2 and 2; enough cells	5788
KRAS	-1.94	migration z between -2 and 2; enough cells	5501
CSTF1	0.76	migration z between -2 and 2; enough cells	5945
ARAP2	-0.68	migration z between -2 and 2; enough cells	6037
PDPN	1.01	migration z between -2 and 2; enough cells	7020
CNTD1	-1.94	migration z between -2 and 2; enough cells	5598
PRSS50	-0.68	migration z between -2 and 2; enough cells	5216
MYL12A	-0.06	migration z between -2 and 2; enough cells	5757
MRPS21	-0.21	migration z between -2 and 2; enough cells	5493
ZNF75A	-1.18	migration z between -2 and 2; enough cells	4604
SLC52A2	-1.12	migration z between -2 and 2; enough cells	6103
NPAS4	1.94	migration z between -2 and 2; enough cells	6092
CLMB	-0.17	migration z between -2 and 2; enough cells	5751
IDE	-0.88	migration z between -2 and 2; enough cells	6216
KRTAP15-1	0.56	migration z between -2 and 2; enough cells	5106
DLL4	-1.68	migration z between -2 and 2; enough cells	4780
TFF1	-1.31	migration z between -2 and 2; enough cells	4232
PLPPR2	-2.52 (active)	migration z below -2; enough cells	5060
RMI1	-0.38	migration z between -2 and 2; enough cells	6082
OR10H4	-3.15 (active)	migration z below -2; enough cells	5665
LIPF	0.7	migration z between -2 and 2; enough cells	6578
HTN1	0.04	migration z between -2 and 2; enough cells	4397
PSORS1C1	0.03	migration z between -2 and 2; enough cells	5654
DPP4	0.57	migration z between -2 and 2; enough cells	6945
NIPSNAP3B	1.21	migration z between -2 and 2; enough cells	6740
PRSS38	0.08	migration z between -2 and 2; enough cells	5053
ARMC6	-0.53	migration z between -2 and 2; enough cells	5454
CCZ1	0.08	migration z between -2 and 2; enough cells	5794
CCDC89	0.71	migration z between -2 and 2; enough cells	5832
HSD11B1L	-0.24	migration z between -2 and 2; enough cells	4899
SAAL1	2.47 (active)	migration z above 2; enough cells	7434
OR5K4	-0.12	migration z between -2 and 2; enough cells	6064
OR8K1	-0.59	migration z between -2 and 2; enough cells	5108
GIMAP4	-0.03	migration z between -2 and 2; enough cells	5511
CHRNB3	-0.05	migration z between -2 and 2; enough cells	6604
TCERG1L	0.78	migration z between -2 and 2; enough cells	5720
DCK	0.02	migration z between -2 and 2; enough cells	5596
FCHSD1	1.54	migration z between -2 and 2; enough cells	5494

Quoted from the entries so far (5 entries):
gene knocked down	migration robust z-score	migration class with cell-count check	nuclei per well, duplicate mean
CCZ1	0.08	migration z between -2 and 2; enough cells	5794
CCDC89	0.71	migration z between -2 and 2; enough cells	5832
HSD11B1L	-0.24	migration z between -2 and 2; enough cells	4899
SAAL1	2.47 (active)	migration z above 2; enough cells	7434
OR5K4	-0.12	migration z between -2 and 2; enough cells	6064
